This is an account of results in the supplement of paper PMC3334620.

Over roughly 33,000 sequences, “E-score (-0.5 to 0.5)” has its median near -0.0014; the highest 2% begin near 0.25. Some of the results follow.

In the test the target is T1, Cad1 (UniProt P24813).
T1 sequence: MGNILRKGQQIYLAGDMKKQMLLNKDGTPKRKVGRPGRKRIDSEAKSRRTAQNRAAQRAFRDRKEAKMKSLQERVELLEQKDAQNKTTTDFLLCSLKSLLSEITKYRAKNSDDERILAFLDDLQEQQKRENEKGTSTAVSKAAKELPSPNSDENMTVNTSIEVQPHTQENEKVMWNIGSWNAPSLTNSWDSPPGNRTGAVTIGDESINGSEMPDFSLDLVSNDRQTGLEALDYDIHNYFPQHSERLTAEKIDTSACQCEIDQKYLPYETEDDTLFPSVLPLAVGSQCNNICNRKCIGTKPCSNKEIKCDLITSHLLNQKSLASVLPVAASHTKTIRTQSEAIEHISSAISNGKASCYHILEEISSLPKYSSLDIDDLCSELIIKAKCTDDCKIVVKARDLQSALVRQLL
Description: PBM E-score (8-mer binding enrichment) (E-score (-0.5 to 0.5)); higher = stronger / more preferred TF binding. The note with it: protein concentration: 100 nM; construct: GST-full length. The method in brief:
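E-scores (a modified Wilcoxon-Mann-Whitney statistic) were assigned by the Universal PBM Analysis Suite to every ungapped eight-base word pooled with its reverse complement. The input came from universal all-10-mer Agilent arrays made double-stranded by primer extension and probed with GST-tagged yeast transcription factors at about 100-200 nM. Fluorescent anti-GST detected bound protein, and masliner normalised the scans.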
Regarding TAGCTACA, the “PBM E-score” value is 0.129.

As for TAGCGAAA, the “PBM E-score” value was found to be 0.0641.

With ACAGCTGT, the “PBM E-score” value was determined as 0.261.

With AACACAGA, the “PBM E-score” value was 0.19.

In the case of GAATTAAC, the “PBM E-score” value was 0.0768.

Consider CAGTAGAC, for which the “PBM E-score” value is -0.143.

Regarding GGTGGTTA, the “PBM E-score” value is -0.0875.

Turning to CTGGTTGC, the “PBM E-score” value came to 0.221.

Turning to CACGGCGC, the “PBM E-score” value is 0.0653.

Turning to ACGGCTAT, the “PBM E-score” value was -0.0988.

On to CCGTTGTC, for which the “PBM E-score” value stood at 0.172.

Regarding AAAATTGG, the “PBM E-score” value is 0.0189.

As for GGGCTCGA, the “PBM E-score” value was -0.195.

Regarding TAGTCACA, the “PBM E-score” value worked out at 0.102.

As for CTAAGGAG, the “PBM E-score” value was -0.138.

Regarding CCCGTATC, the “PBM E-score” value was -0.15.

Regarding GCCGGAAA, the “PBM E-score” value turned out to be 0.156.

Turning to GAGCCTCA, the “PBM E-score” value is -0.127.

Take GGTTGCAC: the “PBM E-score” value was determined as 0.0639.

As for AGCTGGCC, the “PBM E-score” value was -0.0868.

Take GATAGGGC: the “PBM E-score” value was -0.0803.

Turning to GCGATTTA, the “PBM E-score” value was determined as 0.156.

Turning to AAAGGAAT, the “PBM E-score” value is -0.126.

CATCCTAC: the “PBM E-score” value was -0.171.

As for AGCCACTG, the “PBM E-score” value was -0.0671.

Consider GAATCTAA, for which the “PBM E-score” value stood at 0.159.

Turning to CCCCCGAA, the “PBM E-score” value was -0.307.

Regarding CCTCTCTA, the “PBM E-score” value is -0.306.

As for CTCTTGTA, the “PBM E-score” value is -0.174.

Regarding GGCACGGA, the “PBM E-score” value was 0.00063.

Turning to CTCCATAC, the “PBM E-score” value was -0.104.

Consider ACACTAGG, for which the “PBM E-score” value was -0.0208.

For GACGCTTA, the “PBM E-score” value was 0.0345.

Turning to AAAACCAC, the “PBM E-score” value was -0.106.

With GCGCGTGA, the “PBM E-score” value worked out at 0.202.

For the sequence GGGTACAC, the “PBM E-score” value was -0.139.

Consider CCCAAGCA, for which the “PBM E-score” value is -0.107.

As to CATACAGC, the “PBM E-score” value is -0.078.

In the case of GAAGCTCC, the “PBM E-score” value is -0.0686.

Turning to GCCACGGC, the “PBM E-score” value was -0.0123.

For AGTCGTAA, the “PBM E-score” value was -0.0181.

For GGGAGCAA, the “PBM E-score” value was -0.244.

In the case of GCTCCAGC, the “PBM E-score” value is -0.109.

As for ATGAGCTC, the “PBM E-score” value was -0.0302.

For CAATACTC, the “PBM E-score” value stood at 0.126.

Turning to CGATGGGC, the “PBM E-score” value was -0.0192.

Consider CTCTGTTC, for which the “PBM E-score” value was -0.0927.

Turning to CTAGAAAA, the “PBM E-score” value was -0.0993.

In the case of CACGCGGC, the “PBM E-score” value was found to be 0.0714.

Regarding GGTAAAAA, the “PBM E-score” value was 0.203.

Take GCTAAAGA: the “PBM E-score” value was 0.155.

As to TATCCAAA, the “PBM E-score” value is 0.248.

As for TCTGATAA, the “PBM E-score” value is -0.0338.

AAGGACAC: the “PBM E-score” value was -0.123.

In the case of ACTGTCGC, the “PBM E-score” value is -0.0989.

For the sequence GTGCCTCA, the “PBM E-score” value is -0.376.

In the case of GGTGGAAA, the “PBM E-score” value was -0.106.

As to CACAAAGA, the “PBM E-score” value is 0.028.

Regarding GGCTTCGA, the “PBM E-score” value worked out at 0.0167.

As for GATTCCAC, the “PBM E-score” value came out at 0.0593.

As to AGGACCAC, the “PBM E-score” value is -0.0559.

As to ACGTAGAT, the “PBM E-score” value amounted to 0.14.

On to GTCCTTTA, for which the “PBM E-score” value is -0.157.

Take ACCTCGTC: the “PBM E-score” value worked out at 0.0714.

Take GGCGGGAC: the “PBM E-score” value is -0.023.

For CGCGCCAG, the “PBM E-score” value amounted to 0.0872.

For the sequence AAAGATTC, the “PBM E-score” value was 0.108.

Take AAGGTGAC: the “PBM E-score” value is -0.00908.

Consider GTCGCAAC, for which the “PBM E-score” value amounted to 0.017.

Turning to CTAACATA, the “PBM E-score” value was 0.148.

Consider GGATAATA, for which the “PBM E-score” value worked out at 0.113.

AGAACGAG: the “PBM E-score” value stood at 0.0921.

Turning to TCCAGGCA, the “PBM E-score” value stood at 0.101.

Consider CGATGTCA, for which the “PBM E-score” value came to 0.00762.

Take AACGCTAG: the “PBM E-score” value is -0.178.

Turning to CCATCATC, the “PBM E-score” value is -0.0155.

In the case of ACGTCTCT, the “PBM E-score” value was -0.0622.

For CGTCCAAC, the “PBM E-score” value is -0.0761.

For the sequence ACCGCGTG, the “PBM E-score” value was 0.0838.

With CTAGGCTC, the “PBM E-score” value was -0.239.

For the sequence ATATATAT, the “PBM E-score” value is 0.295.

On to GCTCACAA, for which the “PBM E-score” value turned out to be 0.205.

For ATATCAAC, the “PBM E-score” value was found to be 0.253.

Regarding AAATATCT, the “PBM E-score” value worked out at 0.114.

Regarding CAGCATGA, the “PBM E-score” value is -0.0607.

For ACCGGGTA, the “PBM E-score” value is -0.0141.

For AAGACACA, the “PBM E-score” value is -0.109.

Regarding GTCCCGAA, the “PBM E-score” value was -0.128.

Take ATAGTATG: the “PBM E-score” value came out at 0.074.

As to ATAACCTC, the “PBM E-score” value stood at 0.0774.

CAGTGTAG: the “PBM E-score” value was found to be 0.0795.

Consider ACTTACGA, for which the “PBM E-score” value was found to be 0.184.

For the sequence AGGGTGGA, the “PBM E-score” value is -0.0446.

As to CGGGAAGC, the “PBM E-score” value is -0.0112.

For the sequence GGAACTAC, the “PBM E-score” value was -0.0515.

GAAAAACA: the “PBM E-score” value was -0.0722.

For CCCTGGCA, the “PBM E-score” value is -0.0951.

As for TAGGAGGA, the “PBM E-score” value was -0.212.

As for ACCTCAAA, the “PBM E-score” value was -0.0553.

With CACCCGCC, the “PBM E-score” value came out at 0.0605.

On to AACACCCC, for which the “PBM E-score” value stood at 0.119.

CTTACGGC: the “PBM E-score” value was -0.195.

On to AAACCGGA, for which the “PBM E-score” value came to 0.0985.

In the case of CCGTCCTC, the “PBM E-score” value was -0.193.

AACCTTTA: the “PBM E-score” value was -0.102.

Turning to GCTTTGCA, the “PBM E-score” value was -0.127.

As for CTGGCGCA, the “PBM E-score” value was -0.228.

In the case of AGAGTTAT, the “PBM E-score” value worked out at 0.0358.

As to GACGAGTA, the “PBM E-score” value worked out at 0.0138.

With GACACAGC, the “PBM E-score” value is 0.0664.
